Primary screen of a compound library

The chains behind the UniProt entries cited, without tags or fusion partners.
UniProt E9BF75, entry or part of it: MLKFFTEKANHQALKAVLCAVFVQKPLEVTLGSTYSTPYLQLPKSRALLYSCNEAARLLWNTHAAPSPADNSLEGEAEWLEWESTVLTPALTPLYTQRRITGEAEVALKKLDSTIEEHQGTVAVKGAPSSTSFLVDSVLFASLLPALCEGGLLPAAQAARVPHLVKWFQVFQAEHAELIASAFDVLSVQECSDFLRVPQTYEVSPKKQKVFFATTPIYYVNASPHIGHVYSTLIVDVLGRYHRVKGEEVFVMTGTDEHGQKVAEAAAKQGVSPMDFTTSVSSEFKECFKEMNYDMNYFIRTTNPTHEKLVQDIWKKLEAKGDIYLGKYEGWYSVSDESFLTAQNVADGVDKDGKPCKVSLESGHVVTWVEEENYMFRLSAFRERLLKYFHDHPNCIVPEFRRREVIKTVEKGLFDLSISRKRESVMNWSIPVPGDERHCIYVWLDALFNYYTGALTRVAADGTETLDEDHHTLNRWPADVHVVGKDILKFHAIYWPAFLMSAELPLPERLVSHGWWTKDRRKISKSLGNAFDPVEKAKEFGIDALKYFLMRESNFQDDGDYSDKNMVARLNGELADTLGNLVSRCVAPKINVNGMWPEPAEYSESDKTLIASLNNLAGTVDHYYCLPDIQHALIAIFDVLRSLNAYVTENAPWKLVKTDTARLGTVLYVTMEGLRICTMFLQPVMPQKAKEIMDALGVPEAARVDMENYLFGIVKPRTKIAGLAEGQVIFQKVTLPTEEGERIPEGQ

Results are percentages, as filed. The controls that fix the scale are not given in the record; negative values are as filed. The compounds are a random part of those screened.

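Primary screen of methionyl-tRNA synthetase; the read-out is not stated. Target: Methionyl-tRNA synthetase (putative), Leishmania donovani (UniProt E9BF75). The test concentration is not given. Values are per cent inhibition. Of about 68,000 compounds tested this way, about 24 (0.035%) reached 50% or more in at least one test.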

| # | compound | inhibition |
|---|---|---|
| 1 | `CN(C)S(=O)(=O)N1CCC(Oc2ccccn2)CC1` | 8.824 |
| 2 | `CC(C)c1cc2c(O)nc(CSCC(=O)O)nc2s1` | 9.544 |
| 3 | `CC(C)OCc1ncn2c1CN(CC1CC1)CCC2` | 7.302 |
| 4 | `O=C(NCCOc1ccc2c(c1)CCC2)N1CCS(=O)(=O)CC1` | 4.908 |
| 5 | `Cc1cnn(Cc2ccc(NC(=O)N3CCCC3)cc2)c1` | 8.877 |
| 6 | `Cc1c(F)cc(C(=O)O)cc1S(=O)(=O)Nc1ccccc1` | 4.738 |
| 7 | `COC(=O)N1CC(C)=C(C)CN1C(=O)Nc1ccc(Cl)cc1` | 14.32 |
| 8 | `CCN(c1ccccc1C(=O)O)S(=O)(=O)c1cccc2cccnc12` | 12.03 |
| 9 | `Cc1ncsc1CCNC(=O)Cn1nc(C)n(Cc2ccccc2)c1=O` | 16.97 |
| 10 | `CN(C)S(=O)(=O)N1CC[C@]2(C[C@H](Oc3ncccc3F)CO2)C1` | 9.013 |
| 11 | `CNC(=O)c1coc(-c2csc(C)n2)c1` | 14.25 |
| 12 | `COc1ccc(C2CCCN2C(=O)NCCCn2ccnc2)cc1` (stereo not given) | 5.736 |
| 13 | `CC(CO)NC(=O)Nc1ccc(COC2CCCC2)cc1` (stereo not given) | 17.58 |
| 14 | `CNC(=O)[C@H]1C[C@@H]2CN(C(=O)c3ccc(C)nc3)C[C@@H]2N1C` | 8.403 |
| 15 | `Cc1ccc(CN2C[C@@H]3[C@@H](C(=O)NCC4CC4)CCS(=O)(=O)[C@@H]3C2)cc1` | 15.23 |
| 16 | `COc1cc(C)ccc1OCC(=O)NS(=O)(=O)c1ccc(Br)s1` | 4.918 |
| 17 | `CC(C)S(=O)(=O)C(C)C(=O)Nc1ccc2oc(C3CC3)nc2c1` (stereo not given) | 10.03 |
| 18 | `Cc1csc(C(Cc2ccsc2)NC(=O)C2CCN(S(C)(=O)=O)CC2)n1` (stereo not given) | 7.812 |
| 19 | `CNC(=O)c1cccnc1N1CCN(C/C=C/c2ccccc2)CC1` | 11.15 |
| 20 | `CC(=O)N1CCn2c(nnc2C2CCCCN2C(C)=O)C1` (stereo not given) | 15.48 |
| 21 | `CC1(C)CN(C(=O)CCc2nc(-c3ccncc3)no2)CCO1` | 4.396 |
| 22 | `Cc1nc(CC2CCCN(Cc3nc4ccccc4c(=O)[nH]3)C2)no1` (stereo not given) | 16.19 |
| 23 | `Cn1cc(CN2CCC3(CC2)CC(c2ccncc2)C(=O)N3)cn1` (stereo not given) | 9.013 |
| 24 | `CCn1cnc(NC(=O)NCC2CCS(=O)(=O)CC2)n1` | 9.474 |
| 25 | `O=C(Cn1cc(I)cn1)N1CCCC1` | 12.86 |
| 26 | `O=S(=O)(C1CC1)N1CCO[C@H]2[C@H](OCC3CCCC3)CC[C@@H]21` | 12.13 |
| 27 | `CCCOc1ccc(CNC(=O)N2CCC(C(N)=O)C2)cc1` (stereo not given) | 11.74 |
| 28 | `CC(C)COCCCNC(=O)c1cccnc1N1CCOCC1` | 14.99 |
| 29 | `COc1ccnc(N2C[C@@H]3CC[C@H](C2)N(CC2CC2)C3)n1` | 22.5 |
| 30 | `CCCOc1ccccc1CCCNc1ncnc2oc(C)nc12` | 19.76 |
| 31 | `O=C1COc2cc(OC[C@@H]3CCCN4CCCC[C@H]34)ccc21` | 11.88 |
| 32 | `O=C(NC1CCC1)[C@@H]1C[C@@H]2CCN(CCc3ccccc3)C[C@H]2O1` | 18.13 |
| 33 | `COCCN1CCCC12CCN(Cc1cccnc1OC)CC2` | 7.609 |
| 34 | `c1cnn(Cc2cnc3n2CCN(CC2CCCCC2)C3)c1` | 15.56 |
| 35 | `COc1ccc(OC)c(Sc2ncccc2C(=O)NCC2CC2)c1` | 3.056 |
| 36 | `Cc1nnc(N2CC[C@H]3C[C@@H](C(=O)NC4CCCC4)O[C@H]3C2)s1` | 5.051 |
| 37 | `Cc1cc(=O)n(CC(=O)NC(C)C)c(Nc2ccc(F)c(C)c2)n1` | 20.33 |
| 38 | `CC(=O)N1CCC2(CC1)NC(=O)[C@H]1CN(Cc3cccnc3)C[C@H]12` | 6.667 |
| 39 | `Cn1ncc2cnn(CC(O)COc3cccc4[nH]ccc34)c2c1=O` (stereo not given) | -0.2793 |
| 40 | `Cn1nc(C(=O)NC2CCCCC2)cc1NC(=O)C1CC1` | 11.28 |
| 41 | `CN(C)C(=O)CC1CC2(CCNCC2)c2cc(F)ccc21` (stereo not given) | 7.071 |
| 42 | `COC(=O)CC(c1ccccc1)c1oc(C)cc(=O)c1O` (stereo not given) | 12.59 |
| 43 | `COCC1CC2(CCN(Cc3ccoc3)CC2)CN1C(C)C` (stereo not given) | 2.614 |
| 44 | `CCC(O)CN(CC(=O)Nc1cc(C)no1)c1ccccc1` (stereo not given) | 16.67 |
| 45 | `Cc1nc[nH]c1-c1nccn1CCN1CCOC1=O` | 18.92 |
| 46 | `COCc1nc(CN2C(=O)OC[C@@H]2C(C)C)no1` | 9.966 |
| 47 | `CCC(NC(=O)NCc1cccc(N(C)C)n1)c1cccs1` (stereo not given) | 19.26 |
| 48 | `CCc1nc(C)c([C@H]2CN(C)C[C@@H]2C(=O)NCCc2cnccn2)[nH]1` | 15.58 |
| 49 | `Cc1cc(NC(=O)NCCc2ccc(S(N)(=O)=O)cc2)n(C)n1` | 11.61 |
| 50 | `Cc1csc(NC(=O)c2cccnc2N2CCOCC2)n1` | 4.899 |
| 51 | `CCc1nnsc1C(=O)NC(CC(C)C)C(=O)OC` (stereo not given) | 4.348 |
| 52 | `CC(C)(C)c1noc(CN2CCN(C(=O)c3cccs3)CC2)n1` | 10.93 |
| 53 | `CCN(CC)C1(Cc2cc(-c3ccccn3)on2)COC1` | 10.53 |
| 54 | `O=C(NCCN1CCOCC1)C1=NOC2(CCN(Cc3nccs3)C2)C1` (stereo not given) | 4.575 |
| 55 | `Cc1nc(CN2CCCC(NCc3sccc3C)C2)no1` (stereo not given) | 13.39 |
| 56 | `Cc1nc(NC(=O)NCc2cccnc2NCCN(C)C)sc1C` | 6.283 |
| 57 | `Cc1ccccc1C(C(=O)NCCn1cccc1)N(C)C` (stereo not given) | 19.3 |
| 58 | `N#Cc1ccc(CN2CCCCC2Cn2cncn2)cc1` (stereo not given) | 1.37 |
| 59 | `Nc1nnc(Cn2nnc(-c3ccccc3F)n2)s1` | -2.21 |
| 60 | `O=C(c1cc(=O)[nH]c(=O)[nH]1)N1CCCC(CO)(CC2CC2)C1` (stereo not given) | -4.375 |
| 61 | `Cc1ccc(CN2C[C@H](OCCN(C)C)[C@H]3COC[C@H]32)o1` | 12.09 |
| 62 | `CN(Cc1ccccc1NCc1cscn1)C(=O)c1cccs1` | 12.1 |
| 63 | `COc1ccc([C@@H]2CN(Cc3ccncc3)C[C@H]2c2cc[nH]n2)cc1` | 8.491 |
| 64 | `CCN1CCCC1CNCc1cc2ccccc2[nH]c1=O` (stereo not given) | 12.6 |
| 65 | `NC(=O)c1cc(NC(=O)N2CCCCCC2)ccc1F` | 2.857 |
| 66 | `CCCC(=O)NC(Cc1ccc(C)cc1)c1ccccn1` (stereo not given) | 14.18 |
| 67 | `CNC(=O)CN(C)C(=O)c1cc2ccccc2cc1OC` | 16.33 |
| 68 | `CCOc1ccc(NS(=O)(=O)c2cc(C)c(C(=O)O)s2)c(C)c1` | 7.117 |
| 69 | `O=C([C@@H]1CCO[C@@H]2CCN(Cc3cccs3)C[C@H]21)N1CCCCO1` | 11.24 |
| 70 | `CC(C)c1nnc2sc(CC3CCS(=O)(=O)C3)nn12` (stereo not given) | -7.519 |
| 71 | `CN1CC(=O)N(c2cnn(C)c2)CC12CCN(Cc1ccccc1)C2` (stereo not given) | 11.5 |
| 72 | `O=C1NCC2(CCCN(C(=O)CCn3cnc4ccccc43)CC2)O1` (stereo not given) | 21.25 |
| 73 | `Cc1noc(C)c1C(=O)NCc1ccc(N2CCCCCC2)nc1` | 16.47 |
| 74 | `COCCN1CCO[C@@H]2CN(C(=O)c3ccc4[nH]ccc4c3)CC[C@@H]2C1` | 17.37 |
| 75 | `Cc1cccc(Cn2nc(C3CCNCC3)n(-c3ccccc3)c2=O)c1` | 4.963 |
| 76 | `O=C(Cc1ccc2c(c1)OCO2)N1CCN(c2cnccn2)CC1` | 15.31 |

The values are deposited in ChEMBL (CHEMBL3988442, “University of Dundee, Small-Polar-MMV Screening Library” (2021)).